Measured values: article PMC2964333
Results are given in words; binding and its absence hold for the method and conditions named. In cells and extracts the contact can be indirect. Some entries that bind do so weakly or less than the wild type.

The chains behind the UniProt entries cited, without tags or fusion partners. Where a name states a change or a piece, a line headed by the entry shows the natural chain unless it says otherwise.
UniProt O08863: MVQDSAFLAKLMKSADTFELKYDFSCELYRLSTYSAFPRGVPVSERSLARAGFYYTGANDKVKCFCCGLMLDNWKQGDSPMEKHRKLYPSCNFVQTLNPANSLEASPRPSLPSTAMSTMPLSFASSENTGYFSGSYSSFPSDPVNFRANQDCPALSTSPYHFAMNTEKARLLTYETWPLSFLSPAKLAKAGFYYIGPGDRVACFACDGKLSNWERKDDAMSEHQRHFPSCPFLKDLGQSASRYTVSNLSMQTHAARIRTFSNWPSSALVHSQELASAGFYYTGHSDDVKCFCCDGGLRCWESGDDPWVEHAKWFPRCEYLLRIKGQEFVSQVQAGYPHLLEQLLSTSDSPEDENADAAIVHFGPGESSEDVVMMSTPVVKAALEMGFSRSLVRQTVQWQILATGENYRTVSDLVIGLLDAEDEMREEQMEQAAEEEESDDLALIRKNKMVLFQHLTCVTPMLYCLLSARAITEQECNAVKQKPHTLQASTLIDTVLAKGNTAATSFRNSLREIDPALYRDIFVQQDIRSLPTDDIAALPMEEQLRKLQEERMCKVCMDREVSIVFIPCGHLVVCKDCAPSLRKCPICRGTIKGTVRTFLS

Assays:
[1] = molecular target: GST-tagged murine c-IAP2^H570A (mouse) (UniProt O08863); assay: pull-down; GST-tagged c-IAP2 proteins on glutathione Sepharose 4B beads incubated with 35S-labeled in vitro translated TRAF2 for 3 h at 4°C in 120 mM NaCl, 10% glycerol, 1% Triton X-100, 50 mM Tris pH 7.5; washed, eluted, SDS-PAGE; only the target purified
[2] = molecular target: GST-tagged murine c-IAP2 (mouse) (UniProt O08863); assay: as above

B1: TNF Receptor Associated Factor 2 (TRAF2), 35S-labeled, in vitro translated (protein, UniProt P39429 1-501)
chain: MAAASVTSPGSLELLQPGFSKTLLGTRLEAKYLCSACKNILRRPFQAQCGHRYCSFCLTSILSSGPQNCAACVYEGLYEEGISILESSSAFPDNAARREVESLPAVCPNDGCTWKGTLKEYESCHEGLCPFLLTECPACKGLVRLSEKEHHTEQECPKRSLSCQHCRAPCSHVDLEVHYEVCPKFPLTCDGCGKKKIPRETFQDHVRACSKCRVLCRFHTVGCSEMVETENLQDHELQRLREHLALLLSSFLEAQASPGTLNQVGPELLQRCQILEQKIATFENIVCVLNREVERVAVTAEACSRQHRLDQDKIEALSNKVQQLERSIGLKDLAMADLEQKVSELEVSTYDGVFIWKISDFTRKRQEAVAGRTPAIFSPAFYTSRYGYKMCLRVYLNGDGTGRGTHLSLFFVVMKGPNDALLQWPFNQKVTLMLLDHNNREHVIDAFRPDVTSSSFQRPVSDMNIASGCPLFCPVSKMEAKNSYVRDDAIFIKAIVDLTGL
modifications: 35S-labeled
binding [1]: binds
binding [2]: binds
